According to publication PMC6948192, “Structural Organization and Dynamics of Homodimeric Cytohesin Family Arf GTPase Exchange Factors in Solution and on Membranes” (Structure(London, England:1993), 2019):
These are yes or no findings as the source states them, for the method shown.

Protein sequences, listed by entry. Tags and fused reporters are not part of them. Lines headed by an entry give the natural chain unless they say otherwise; changes in a name come on top. Residues count along the entry.
UniProt Q99418, residues 50-400: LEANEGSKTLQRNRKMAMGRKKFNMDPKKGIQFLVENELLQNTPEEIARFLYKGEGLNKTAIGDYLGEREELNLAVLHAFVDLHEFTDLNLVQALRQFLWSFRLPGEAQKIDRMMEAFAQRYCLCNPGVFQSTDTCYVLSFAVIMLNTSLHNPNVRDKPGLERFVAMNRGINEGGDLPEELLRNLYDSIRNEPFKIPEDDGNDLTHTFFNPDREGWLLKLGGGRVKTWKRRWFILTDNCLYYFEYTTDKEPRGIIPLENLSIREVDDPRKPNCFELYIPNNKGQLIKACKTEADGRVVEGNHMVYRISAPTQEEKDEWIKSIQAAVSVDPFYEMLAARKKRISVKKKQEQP

Molecular target: ARNO construct truncated for the N-terminal CC domain (residues 50-400; ARNOΔNt) (human) (UniProt Q99418)
Assay: SEC-SAXS; ARNOΔNt; SWING beamline (SOLEIL), Bio SEC-3 300 Å column, 350 μg in 40 μL (8 mg/ml) injected; 20 mM Tris pH 8.0, 150 mM NaCl, 1 mM DTT; both purified

## ARNO construct truncated for the N-terminal CC domain (residues 50-400; ARNOΔNt) (from UniProt Q99418 50-400) (domain or fragment)
  binding: no binding (tested: 8 mg/ml injected (350 μg in 40 μL))
